Assay results reported in patent publication US20100287636A1, “COMPOSITIONS AND METHODS FOR INHIBITING INDUCIBLE T CELL KINASE (ITK) AND TREATING ASTHMA AND BRONCHIAL INFLAMMATIONS” (San Diego State University Foundation, dba San Diego State …, priority 2007, published 2010).
These are yes or no findings as the source states them, for the method shown. Binding seen in cells or lysates may run through a third protein. Some entries that bind do so weakly or less than the wild type.

By UniProt entry, the sequences of proteins in these tests, tags left out.
UniProt Q03526: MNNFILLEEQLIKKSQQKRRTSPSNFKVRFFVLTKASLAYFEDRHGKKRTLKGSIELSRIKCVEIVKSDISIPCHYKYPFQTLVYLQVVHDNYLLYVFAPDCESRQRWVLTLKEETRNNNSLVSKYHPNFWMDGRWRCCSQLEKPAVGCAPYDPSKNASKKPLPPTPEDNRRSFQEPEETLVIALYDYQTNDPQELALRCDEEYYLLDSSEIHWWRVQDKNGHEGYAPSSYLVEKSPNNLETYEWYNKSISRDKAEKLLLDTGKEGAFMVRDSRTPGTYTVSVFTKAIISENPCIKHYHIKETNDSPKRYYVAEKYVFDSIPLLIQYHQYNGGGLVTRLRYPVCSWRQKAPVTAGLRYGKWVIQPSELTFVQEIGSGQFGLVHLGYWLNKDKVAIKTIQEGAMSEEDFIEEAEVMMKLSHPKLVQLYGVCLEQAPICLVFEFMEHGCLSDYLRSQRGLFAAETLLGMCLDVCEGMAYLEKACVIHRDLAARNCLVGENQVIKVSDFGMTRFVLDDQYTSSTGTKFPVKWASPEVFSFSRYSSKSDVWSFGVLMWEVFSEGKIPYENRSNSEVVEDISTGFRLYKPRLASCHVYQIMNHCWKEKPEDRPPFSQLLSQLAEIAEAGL

Legend:
[1] = biological target: ITK, endogenous in mouse splenic lymphocytes (mouse) (UniProt Q03526); assay: competition shown indirectly: co-IP of ITK with SLP76 from splenic cells of peptide-injected mice (figure legend, FIG. 7)
[2] = biological target: ITK, endogenous in mouse splenic lymphocytes (mouse) (UniProt Q03526); assay: competition shown indirectly: co-IP of ITK with SLP76 from stimulated splenic cells of peptide-injected mice

binding [1]: binds
binding [2]: binds
Binder: RRRRRRRRRQQPPVPPQRPMA [R9-QQP, arginine-SLP76 peptide conjugate …]
